{"source": "patent US7662782B2", "about": "(Action Pharma A/S, priority 1998, dated 2010)", "note": "For some of these results: Strings that start with PEPTIDE1 are HELM notation: dots part the residues, brackets hold end groups and non-standard residues. Ends that are not written are not given here."}
{"experiment": "general procedure: peptide synthesis; Fmoc-PAL-PEG-PS; Fmoc-amino acid OPfp esters with HOAt; HATU; PyAOP or TFFH for N-methyl residues", "conditions": "whole synthesis, scale 0.02 mmole, trifluoroacetate salt", "units": {"crude mass": "mg", "isolated mass": "mg", "isolated yield": "%"}}
{"substance": "L-seryl-L-seryl-L-Isoleucyl-L-isoleucyl-L-seryl -L-histidyl-L-phenylalanyl-L-arginyl-L-tryptophanyl-glycyl-L-lysyl-L-prolyl-L-valinamide", "crude mass": 31, "isolated mass": 13.2, "isolated yield": 33}
{"experiment": "general procedure: peptide synthesis; Fmoc-PAL-PEG-PS, capacity 0.2 mmole/g; Fmoc-amino acid OPfp esters with HOAt; HATU; PyAOP or TFFH for N-methyl residues", "conditions": "whole synthesis, scale of the general procedure 0.02 mmole (100 mg resin), tetrafluoroacetate", "units": {"isolated yield": "%"}}
{"substance": "PEPTIDE1{S.S.I.I.S.H.[dF].R.W.G.K.P.V.[am]}$$$$V2.0", "isolated yield": 36}
{"experiment": "general procedure: peptide synthesis; Fmoc-PAL-PEG-PS, capacity 0.2 mmole/g; Fmoc-amino acid OPfp esters with HOAt; HATU; PyAOP or TFFH for N-methyl residues", "conditions": "whole synthesis, scale of the general procedure 0.02 mmole (100 mg resin), tetratrifluoroacetate", "units": {"isolated yield": "%"}}
{"substance": "Thr-Ser-Ile-lle-Ser-His-Phe-Arg-Trp-Gly-Lys-Pro-Val-NH2", "isolated yield": 52}
{"substance": "SSVISHFRWGKPV-NH2", "isolated yield": 42}
{"substance": "Ser-Ser-Ile-lle-Ser-His-Phe-Arg-Trp-Gly-Lys-Pro-Val-Tyr-NH2", "isolated yield": 28}
{"substance": "SSIVSHFRWGKPV-NH2", "isolated yield": 69}
{"substance": "Ser-Ser-Ile-lle-Ser-His-NMedPhe-Arg-Trp-Gly-Lys-Pro-Val-NH2", "isolated yield": 40}
{"substance": "Ser-Ser-Ile-lle-Ser-His-Phe-Arg-Trp-Gly-Lys-Pro-NMeVal-NH2", "isolated yield": 2.5}
{"substance": "YSIISHFRGKPV-NH2", "isolated yield": 34}
{"substance": "Ser-Thr-Ile-lle-Ser-His-Phe-Arg-Trp-Gly-Lys-Pro-Val-NH2", "isolated yield": 49}
{"substance": "YSSIISHFRWGKPV-NH2", "isolated yield": 33}
{"substance": "NMeSer-Ser-Ile-lle-Ser-His-Phe-Arg-Trp-Gly-Lys-Pro-Val-NH2", "isolated yield": 47}
{"substance": "Ac-Ser-Ser-Ile-lle-Ser-His-Phe-Arg-Trp-Gly-Lys-Pro-Val-NH2", "isolated yield": 49}
{"substance": "dSer-Ser-Ile-lle-Ser-His-Phe-Arg-Trp-Gly-Lys-Pro-Val-NH2", "isolated yield": 44}
